Data as given in the supplement of paper PMC6411743.
± gives the standard deviation of the averaged measurements. The list shows a part of the results, in another mix than the full data.

Protein sequences, listed by entry. Tags and fused reporters are not part of them. Lines headed by an entry give the natural chain unless they say otherwise; changes in a name come on top.
UniProt Q9Y2T7, whole entry: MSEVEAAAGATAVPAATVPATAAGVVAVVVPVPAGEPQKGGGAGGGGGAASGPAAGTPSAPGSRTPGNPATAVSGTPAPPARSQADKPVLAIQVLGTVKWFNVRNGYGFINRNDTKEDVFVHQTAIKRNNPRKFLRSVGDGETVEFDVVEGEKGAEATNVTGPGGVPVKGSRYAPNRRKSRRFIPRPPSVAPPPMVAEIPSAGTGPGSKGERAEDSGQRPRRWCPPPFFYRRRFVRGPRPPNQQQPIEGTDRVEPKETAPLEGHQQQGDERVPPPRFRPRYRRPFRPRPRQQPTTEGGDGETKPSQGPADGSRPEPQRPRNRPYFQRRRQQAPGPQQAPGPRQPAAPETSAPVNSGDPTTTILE
UniProt Q9Y6Y0: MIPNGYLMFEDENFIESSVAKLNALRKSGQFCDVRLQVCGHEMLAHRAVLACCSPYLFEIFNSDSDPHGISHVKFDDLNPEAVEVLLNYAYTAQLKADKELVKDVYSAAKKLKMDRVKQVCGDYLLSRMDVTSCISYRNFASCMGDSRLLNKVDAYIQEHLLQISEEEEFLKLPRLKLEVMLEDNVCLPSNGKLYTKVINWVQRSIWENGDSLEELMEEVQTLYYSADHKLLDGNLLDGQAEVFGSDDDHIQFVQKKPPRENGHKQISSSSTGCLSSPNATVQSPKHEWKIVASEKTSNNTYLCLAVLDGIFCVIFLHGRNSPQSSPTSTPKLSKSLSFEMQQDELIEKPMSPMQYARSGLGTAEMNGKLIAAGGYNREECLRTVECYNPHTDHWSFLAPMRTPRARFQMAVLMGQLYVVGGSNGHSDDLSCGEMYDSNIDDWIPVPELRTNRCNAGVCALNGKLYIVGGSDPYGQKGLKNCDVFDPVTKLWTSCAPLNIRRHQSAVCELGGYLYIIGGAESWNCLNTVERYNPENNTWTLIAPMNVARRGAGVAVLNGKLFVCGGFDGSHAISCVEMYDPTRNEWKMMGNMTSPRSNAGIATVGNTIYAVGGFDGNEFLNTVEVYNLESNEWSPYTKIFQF
UniProt Q9Y6V7: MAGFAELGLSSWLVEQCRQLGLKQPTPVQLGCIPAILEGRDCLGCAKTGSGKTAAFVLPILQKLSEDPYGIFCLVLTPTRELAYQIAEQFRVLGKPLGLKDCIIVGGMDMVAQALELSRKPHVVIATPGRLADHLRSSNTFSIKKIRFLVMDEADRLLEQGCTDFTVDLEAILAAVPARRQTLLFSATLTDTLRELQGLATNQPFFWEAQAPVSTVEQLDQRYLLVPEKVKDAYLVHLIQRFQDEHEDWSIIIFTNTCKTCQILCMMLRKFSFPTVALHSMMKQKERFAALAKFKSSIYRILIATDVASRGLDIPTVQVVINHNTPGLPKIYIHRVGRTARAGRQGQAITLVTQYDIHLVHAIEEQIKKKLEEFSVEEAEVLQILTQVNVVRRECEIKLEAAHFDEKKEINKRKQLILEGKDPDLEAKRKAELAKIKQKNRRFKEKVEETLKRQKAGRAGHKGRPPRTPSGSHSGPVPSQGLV
UniProt Q9Y5K8, whole entry: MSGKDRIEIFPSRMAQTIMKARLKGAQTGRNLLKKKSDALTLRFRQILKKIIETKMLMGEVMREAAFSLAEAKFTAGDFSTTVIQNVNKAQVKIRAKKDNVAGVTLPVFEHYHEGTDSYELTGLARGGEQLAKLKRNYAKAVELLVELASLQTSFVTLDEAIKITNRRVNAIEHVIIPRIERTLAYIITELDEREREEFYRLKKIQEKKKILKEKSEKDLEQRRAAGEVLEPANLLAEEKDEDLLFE
UniProt Q9Y2Z4: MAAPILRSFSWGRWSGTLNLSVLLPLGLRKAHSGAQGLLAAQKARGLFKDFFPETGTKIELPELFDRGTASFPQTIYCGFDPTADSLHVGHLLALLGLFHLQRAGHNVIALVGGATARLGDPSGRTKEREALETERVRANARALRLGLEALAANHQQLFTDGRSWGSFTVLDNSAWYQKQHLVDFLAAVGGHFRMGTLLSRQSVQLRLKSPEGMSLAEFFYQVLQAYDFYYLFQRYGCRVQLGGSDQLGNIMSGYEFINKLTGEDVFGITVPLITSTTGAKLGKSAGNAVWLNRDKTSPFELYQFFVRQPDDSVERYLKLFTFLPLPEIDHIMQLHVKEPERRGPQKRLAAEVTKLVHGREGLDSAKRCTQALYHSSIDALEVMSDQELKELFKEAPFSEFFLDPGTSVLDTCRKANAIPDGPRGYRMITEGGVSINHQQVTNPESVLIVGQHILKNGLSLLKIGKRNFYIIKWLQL
UniProt Q9Y2U5: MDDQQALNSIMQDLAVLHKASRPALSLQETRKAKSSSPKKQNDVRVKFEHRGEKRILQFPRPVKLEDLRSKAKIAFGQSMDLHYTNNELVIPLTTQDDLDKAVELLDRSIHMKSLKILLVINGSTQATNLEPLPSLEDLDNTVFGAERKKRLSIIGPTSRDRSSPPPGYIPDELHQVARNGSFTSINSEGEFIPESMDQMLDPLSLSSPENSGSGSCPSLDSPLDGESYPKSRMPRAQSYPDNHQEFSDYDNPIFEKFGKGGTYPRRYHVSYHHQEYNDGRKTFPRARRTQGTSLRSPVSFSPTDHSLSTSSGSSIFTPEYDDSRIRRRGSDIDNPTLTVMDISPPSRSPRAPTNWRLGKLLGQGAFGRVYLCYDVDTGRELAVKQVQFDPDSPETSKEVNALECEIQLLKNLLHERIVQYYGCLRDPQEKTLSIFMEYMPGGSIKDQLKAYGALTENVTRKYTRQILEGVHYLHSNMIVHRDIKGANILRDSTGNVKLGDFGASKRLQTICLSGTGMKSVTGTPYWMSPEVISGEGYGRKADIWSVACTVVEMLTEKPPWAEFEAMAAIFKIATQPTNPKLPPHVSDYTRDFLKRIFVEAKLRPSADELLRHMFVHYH
UniProt Q9Y450, whole entry: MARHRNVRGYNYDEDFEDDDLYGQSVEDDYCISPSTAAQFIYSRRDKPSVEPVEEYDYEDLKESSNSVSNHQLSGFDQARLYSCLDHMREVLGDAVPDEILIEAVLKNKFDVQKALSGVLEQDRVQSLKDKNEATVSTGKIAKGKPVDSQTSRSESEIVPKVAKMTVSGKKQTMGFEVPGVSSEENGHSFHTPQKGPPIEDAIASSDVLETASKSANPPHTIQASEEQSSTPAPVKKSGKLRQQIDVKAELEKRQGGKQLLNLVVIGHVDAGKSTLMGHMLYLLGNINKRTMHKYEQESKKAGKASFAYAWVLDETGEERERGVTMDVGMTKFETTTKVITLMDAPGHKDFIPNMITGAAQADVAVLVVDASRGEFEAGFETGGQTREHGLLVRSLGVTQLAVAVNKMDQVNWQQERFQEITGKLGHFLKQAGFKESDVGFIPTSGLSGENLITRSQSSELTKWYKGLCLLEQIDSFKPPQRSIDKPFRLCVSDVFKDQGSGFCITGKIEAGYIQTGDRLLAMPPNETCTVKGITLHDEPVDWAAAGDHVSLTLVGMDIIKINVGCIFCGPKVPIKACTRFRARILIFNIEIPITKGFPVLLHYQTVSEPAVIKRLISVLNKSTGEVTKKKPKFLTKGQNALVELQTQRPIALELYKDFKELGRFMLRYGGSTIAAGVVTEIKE
UniProt Q9Y3L5: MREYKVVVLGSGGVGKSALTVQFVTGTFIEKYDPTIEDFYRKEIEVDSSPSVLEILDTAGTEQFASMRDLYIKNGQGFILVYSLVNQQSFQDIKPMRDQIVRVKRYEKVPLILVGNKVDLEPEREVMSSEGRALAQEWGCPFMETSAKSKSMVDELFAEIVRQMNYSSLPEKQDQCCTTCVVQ
UniProt Q9Y5Y2: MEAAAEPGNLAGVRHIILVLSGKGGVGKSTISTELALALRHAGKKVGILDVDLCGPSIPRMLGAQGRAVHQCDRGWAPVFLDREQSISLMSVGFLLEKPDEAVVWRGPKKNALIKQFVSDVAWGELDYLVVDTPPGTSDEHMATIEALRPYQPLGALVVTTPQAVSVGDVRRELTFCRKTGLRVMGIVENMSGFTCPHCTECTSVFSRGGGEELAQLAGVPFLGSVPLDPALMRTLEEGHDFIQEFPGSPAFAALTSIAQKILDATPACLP
UniProt Q9Y3E7, whole entry: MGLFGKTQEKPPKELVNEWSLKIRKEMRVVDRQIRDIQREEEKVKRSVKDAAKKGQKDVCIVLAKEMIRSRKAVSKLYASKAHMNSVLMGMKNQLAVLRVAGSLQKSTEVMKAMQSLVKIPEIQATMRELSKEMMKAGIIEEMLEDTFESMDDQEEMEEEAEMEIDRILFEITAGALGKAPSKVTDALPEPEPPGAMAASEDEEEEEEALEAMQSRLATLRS
UniProt Q9Y5L0: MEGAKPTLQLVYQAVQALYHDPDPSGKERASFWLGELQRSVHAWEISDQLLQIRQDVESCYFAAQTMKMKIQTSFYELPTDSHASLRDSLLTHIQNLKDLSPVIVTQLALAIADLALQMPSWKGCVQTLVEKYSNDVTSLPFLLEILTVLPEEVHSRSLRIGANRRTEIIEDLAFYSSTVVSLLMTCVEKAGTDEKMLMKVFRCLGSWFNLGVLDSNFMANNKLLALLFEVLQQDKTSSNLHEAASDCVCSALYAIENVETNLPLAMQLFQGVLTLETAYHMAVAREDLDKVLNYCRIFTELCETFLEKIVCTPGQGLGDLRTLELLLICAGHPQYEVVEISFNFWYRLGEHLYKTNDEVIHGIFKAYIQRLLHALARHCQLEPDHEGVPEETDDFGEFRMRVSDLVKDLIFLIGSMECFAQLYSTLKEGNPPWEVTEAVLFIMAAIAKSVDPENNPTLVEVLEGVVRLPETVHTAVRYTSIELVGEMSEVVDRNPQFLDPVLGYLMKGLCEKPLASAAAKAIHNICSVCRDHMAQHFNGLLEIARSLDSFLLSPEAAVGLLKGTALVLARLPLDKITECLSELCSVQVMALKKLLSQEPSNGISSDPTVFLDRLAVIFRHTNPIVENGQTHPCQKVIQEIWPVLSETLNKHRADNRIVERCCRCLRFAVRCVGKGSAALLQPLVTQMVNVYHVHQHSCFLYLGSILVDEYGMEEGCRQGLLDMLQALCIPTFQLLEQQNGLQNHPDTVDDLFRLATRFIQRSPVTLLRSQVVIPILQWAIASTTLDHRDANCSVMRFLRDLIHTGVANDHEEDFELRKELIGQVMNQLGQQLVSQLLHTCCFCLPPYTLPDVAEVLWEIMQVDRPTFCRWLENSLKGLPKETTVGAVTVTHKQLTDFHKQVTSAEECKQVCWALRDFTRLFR
UniProt Q9Y530: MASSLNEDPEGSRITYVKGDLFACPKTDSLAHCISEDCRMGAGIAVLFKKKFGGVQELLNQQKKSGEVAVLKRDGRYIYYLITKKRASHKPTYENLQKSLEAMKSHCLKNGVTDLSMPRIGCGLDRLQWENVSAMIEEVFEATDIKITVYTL
UniProt Q9Y6W5, whole entry: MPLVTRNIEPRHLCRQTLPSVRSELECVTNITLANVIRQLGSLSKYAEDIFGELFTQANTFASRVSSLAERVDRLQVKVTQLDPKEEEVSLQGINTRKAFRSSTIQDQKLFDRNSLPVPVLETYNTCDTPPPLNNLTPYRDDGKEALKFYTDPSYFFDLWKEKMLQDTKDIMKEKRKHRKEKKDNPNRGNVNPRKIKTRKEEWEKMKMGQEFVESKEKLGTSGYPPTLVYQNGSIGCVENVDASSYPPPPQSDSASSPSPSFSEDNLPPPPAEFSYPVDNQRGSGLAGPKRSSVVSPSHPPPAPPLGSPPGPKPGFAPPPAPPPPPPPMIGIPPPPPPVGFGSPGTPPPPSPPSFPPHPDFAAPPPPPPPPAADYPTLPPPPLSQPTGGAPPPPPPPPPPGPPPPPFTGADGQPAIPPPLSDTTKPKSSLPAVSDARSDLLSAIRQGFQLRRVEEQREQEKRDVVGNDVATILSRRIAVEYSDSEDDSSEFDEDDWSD
UniProt Q9Y2T2: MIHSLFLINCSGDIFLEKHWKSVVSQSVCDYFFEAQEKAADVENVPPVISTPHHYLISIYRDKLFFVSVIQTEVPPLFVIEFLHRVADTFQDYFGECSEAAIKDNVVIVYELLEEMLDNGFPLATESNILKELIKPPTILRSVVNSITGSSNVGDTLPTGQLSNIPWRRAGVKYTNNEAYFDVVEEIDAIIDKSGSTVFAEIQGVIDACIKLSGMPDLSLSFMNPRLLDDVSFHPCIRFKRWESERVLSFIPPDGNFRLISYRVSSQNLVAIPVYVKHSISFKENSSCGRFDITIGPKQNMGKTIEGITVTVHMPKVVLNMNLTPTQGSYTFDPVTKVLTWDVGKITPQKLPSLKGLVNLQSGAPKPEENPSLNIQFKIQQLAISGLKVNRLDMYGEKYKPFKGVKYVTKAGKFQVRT
UniProt Q9Y5Y5: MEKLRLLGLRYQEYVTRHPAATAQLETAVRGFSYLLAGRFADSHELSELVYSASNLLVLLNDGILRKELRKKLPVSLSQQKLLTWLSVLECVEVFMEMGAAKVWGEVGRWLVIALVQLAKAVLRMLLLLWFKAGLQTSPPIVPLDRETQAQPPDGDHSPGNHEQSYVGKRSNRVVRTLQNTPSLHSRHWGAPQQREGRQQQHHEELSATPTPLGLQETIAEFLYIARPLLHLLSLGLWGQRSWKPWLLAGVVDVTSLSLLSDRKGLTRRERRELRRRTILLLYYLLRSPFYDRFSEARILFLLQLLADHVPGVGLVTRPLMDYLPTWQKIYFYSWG

Compound: Nc1ncnc2c1ncn2[C@@H]1O[C@H](COP(=O)(O)OP(=O)(O)OP(=O)(O)O)[C@@H](O)[C@H]1O [adenosine triphosphate]
Experiment: NP40-soluble protein abundance relative to vehicle (solubility fold change) (ratio); higher = more soluble protein in presence of ATP
Summary of the method: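 Crude Jurkat lysate, prepared by Dounce homogenisation, was exposed to eight concentrations from 0.1 to 10 mM for 10 min at room temperature and then 3 min at 37 °C. Solubilisation used 0.8% NP40 with benzonase for 60 min at 4 °C, followed by ultracentrifugation and TMT labelling of the supernatant for LC-MS/MS. After vsn normalisation of intensities, each value is the fold change against the detergent-processed vehicle within each replicate, across three independent experiments.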

Target	NP40-soluble protein abundance (concentration: 1mM)	NP40-soluble protein abundance (concentration: 2mM)	NP40-soluble protein abundance (concentration: 4mM)	NP40-soluble protein abundance (concentration: 6mM)	NP40-soluble protein abundance (concentration: 8mM)	NP40-soluble protein abundance (concentration: 10mM)
HSPB11 (UniProt Q9Y547)	1.05 ± 0.063	1.07 ± 0.066	1.03 ± 0.12	0.981 ± 0.083	1.02 ± 0.056	1.04 ± 0.05
UniProt Q9Y6J0 and related entries	1.04 ± 0.088	0.98 ± 0.052	1 ± 0.042	1.02 ± 0.12	0.992 ± 0.041	1.05 ± 0.036
YBX2 (UniProt Q9Y2T7)	1.23 ± 0.37	1.06 ± 0.086	1.02 ± 0.024	1.12 ± 0.037	0.99 ± 0.058	1.03 ± 0.037
UniProt Q9Y3D0	0.895 ± 0.11	0.949 ± 0.038	0.932 ± 0.056	0.951 ± 0.14	0.918 ± 0.058	0.85 ± 0.11
IVNS1ABP (UniProt Q9Y6Y0)	1.09 ± 0.027	1.02 ± 0.036	1.03 ± 0.041	0.985 ± 0.092	1.04 ± 0.11	1.04 ± 0.084
TACC3 (UniProt Q9Y6A5)	0.948 ± 0.04	0.952 ± 0.026	0.933 ± 0.033	0.978 ± 0.045	0.898 ± 0.017	0.913 ± 0.013
UTP18 (UniProt Q9Y5J1)	1.114 ± 0.0018	1.15 ± 0.053	1.28 ± 0.057	1.39 ± 0.041	1.5 ± 0.057	1.59 ± 0.13
YTHDF2 (UniProt Q9Y5A9)	1.01 ± 0.029	0.98 ± 0.035	0.989 ± 0.052	1.02 ± 0.056	0.994 ± 0.031	1.03 ± 0.018
DDX49 (UniProt Q9Y6V7)	1.06 ± 0.078	1.05 ± 0.14	1.12 ± 0.08	1.15 ± 0.12	1.19 ± 0.17	1.23 ± 0.19
AP4B1 (UniProt Q9Y6B7)	0.956 ± 0.087	1 ± 0.0028	1.01 ± 0.052	1.05 ± 0.013	0.986 ± 0.066	1.08 ± 0.037
ATP6V1D (UniProt Q9Y5K8)	0.972 ± 0.055	0.967 ± 0.045	0.968 ± 0.037	0.918 ± 0.059	0.969 ± 0.047	0.949 ± 0.044
UTP11 (UniProt Q9Y3A2)	1 ± 0.23	0.928 ± 0.2	1.01 ± 0.3	0.976 ± 0.26	1.01 ± 0.29	1.07 ± 0.25
UniProt Q9Y5Q8 and related entries	1.02 ± 0.049	1.04 ± 0.04	1.042 ± 0.0074	0.964 ± 0.025	1.03 ± 0.03	1.03 ± 0.04
YARS2 (UniProt Q9Y2Z4)	1.03 ± 0.082	1 ± 0.082	1.01 ± 0.085	0.938 ± 0.13	1.02 ± 0.085	0.976 ± 0.071
SRPRB (UniProt Q9Y5M8)	1.03 ± 0.052	1.04 ± 0.05	1.01 ± 0.035	1.1 ± 0.07	1.01 ± 0.024	1.01 ± 0.0056
UniProt Q9Y2Z0 and related entries	0.976 ± 0.032	0.985 ± 0.026	0.962 ± 0.037	0.978 ± 0.039	0.945 ± 0.024	0.935 ± 0.014
UniProt Q9Y2U5	1.01 ± 0.029	0.99 ± 0.016	0.995 ± 0.026	0.943 ± 0.05	0.94 ± 0.054	0.938 ± 0.025
UniProt Q9Y450 and related entries	0.995 ± 0.035	1.01 ± 0.054	1 ± 0.045	0.998 ± 0.053	1 ± 0.038	1.02 ± 0.038
NISCH (UniProt Q9Y2I1)	0.983 ± 0.037	0.974 ± 0.029	0.952 ± 0.029	0.954 ± 0.051	0.925 ± 0.019	0.942 ± 0.039
CAB39 (UniProt Q9Y376)	0.922 ± 0.045	0.954 ± 0.033	0.912 ± 0.028	0.882 ± 0.1	0.909 ± 0.034	0.932 ± 0.016

Target	NP40-soluble protein abundance (concentration: 1mM)	NP40-soluble protein abundance (concentration: 2mM)	NP40-soluble protein abundance (concentration: 4mM)	NP40-soluble protein abundance (concentration: 6mM)	NP40-soluble protein abundance (concentration: 8mM)	NP40-soluble protein abundance (concentration: 10mM)
HEBP2 (UniProt Q9Y5Z4)	0.941 ± 0.063	0.989 ± 0.019	0.937 ± 0.028	0.98 ± 0.038	0.921 ± 0.047	0.937 ± 0.038
UniProt Q9Y3P8 and related entries	0.987 ± 0.046	0.97 ± 0.092	1.02 ± 0.12	0.97 ± 0.13	0.887 ± 0.012	0.822 ± 0.084
UniProt Q9Y692 and related entries	0.952 ± 0.015	0.998 ± 0.059	1.02 ± 0.033	0.982 ± 0.04	0.956 ± 0.038	0.964 ± 0.039
UniProt Q9Y3L5	1.06 ± 0.062	1.08 ± 0.045	1.09 ± 0.12	1.12 ± 0.13	1.12 ± 0.057	1.11 ± 0.083
GTF3C3 (UniProt Q9Y5Q9)	1.07 ± 0.046	1.04 ± 0.048	1.03 ± 0.047	1.02 ± 0.051	1.03 ± 0.045	1.01 ± 0.05
TRAF6 (UniProt Q9Y4K3)	1.16 ± 0.25	1.15 ± 0.2	1.22 ± 0.2	1.11 ± 0.2	1.29 ± 0.1	1.24 ± 0.2
UBIAD1 (UniProt Q9Y5Z9)	0.939 ± 0.09	0.997 ± 0.22	1.07 ± 0.13	1.01 ± 0.26	1 ± 0.1	0.901 ± 0.012
R4GN35 and related entries (UniProt Q5VZ89)	0.987 ± 0.075	0.952 ± 0.073	0.978 ± 0.079	0.967 ± 0.062	0.954 ± 0.086	0.947 ± 0.054
NUBP2 (UniProt Q9Y5Y2)	1 ± 0.065	1.02 ± 0.032	1.03 ± 0.047	1.01 ± 0.033	1 ± 0.026	1.03 ± 0.012
UniProt Q9Y3F4 and related entries	1.01 ± 0.023	0.982 ± 0.031	0.936 ± 0.028	0.987 ± 0.037	0.973 ± 0.028	0.953 ± 0.04
UniProt Q9Y6X9 and related entries	1.04 ± 0.02	1.024 ± 0.0079	1.04 ± 0.031	1.04 ± 0.019	0.99 ± 0.033	1.02 ± 0.035
SPCS1 (UniProt Q9Y6A9)	1.01 ± 0.013	0.991 ± 0.039	0.956 ± 0.011	0.96 ± 0.018	0.96 ± 0.025	0.966 ± 0.06
MSRB2 (UniProt Q9Y3D2)	1.04 ± 0.1	1.02 ± 0.095	0.986 ± 0.076	1.02 ± 0.088	0.99 ± 0.074	0.992 ± 0.056
UniProt Q9Y5W8 and related entries	1.06 ± 0.22	0.9974 ± 0.0093	1.02 ± 0.041	0.923 ± 0.0043	1.01 ± 0.024	0.956 ± 0.075
UniProt Q9Y3E7 and related entries	1.21 ± 0.061	1.21 ± 0.1	1.18 ± 0.091	1.29 ± 0.06	1.28 ± 0.084	1.16 ± 0.05
UniProt Q9Y2S2 and related entries	0.9283 ± 0.0087	0.967 ± 0.016	0.947 ± 0.036	0.934 ± 0.053	0.913 ± 0.019	0.953 ± 0.028
UniProt Q9Y2L5 and related entries	1.02 ± 0.068	1.01 ± 0.056	1.01 ± 0.035	0.974 ± 0.045	1.018 ± 0.0094	0.984 ± 0.041
MRPS18B (UniProt Q9Y676)	0.963 ± 0.15	0.873 ± 0.15	0.913 ± 0.17	0.894 ± 0.22	0.892 ± 0.2	0.82 ± 0.18
LSM4 (UniProt Q9Y4Z0)	0.954 ± 0.023	0.974 ± 0.035	0.9643 ± 0.0079	0.942 ± 0.025	0.959 ± 0.058	0.936 ± 0.058
CCDC9 (UniProt Q9Y3X0)	1.11 ± 0.12	1.17 ± 0.094	1.2 ± 0.07	1.35 ± 0.17	1.26 ± 0.083	1.27 ± 0.066

Target	NP40-soluble protein abundance (concentration: 1mM)	NP40-soluble protein abundance (concentration: 2mM)	NP40-soluble protein abundance (concentration: 4mM)	NP40-soluble protein abundance (concentration: 6mM)	NP40-soluble protein abundance (concentration: 8mM)	NP40-soluble protein abundance (concentration: 10mM)
PSAT1 (UniProt Q9Y617)	0.931 ± 0.018	0.935 ± 0.024	0.892 ± 0.011	0.899 ± 0.071	0.896 ± 0.016	0.906 ± 0.024
UniProt Q9Y5L0 and related entries	0.955 ± 0.11	0.954 ± 0.082	0.922 ± 0.044	0.86 ± 0.12	0.926 ± 0.016	0.949 ± 0.059
UniProt Q9Y6A4	1.01 ± 0.14	1.04 ± 0.13	1.05 ± 0.095	1.02 ± 0.18	1.1 ± 0.09	1.12 ± 0.06
TLN1 (UniProt Q9Y490)	0.961 ± 0.036	0.946 ± 0.0097	0.911 ± 0.015	0.97 ± 0.017	0.924 ± 0.02	0.918 ± 0.019
ASB1 (UniProt Q9Y576)	0.952 ± 0.024	0.913 ± 0.14	1.06 ± 0.081	0.997 ± 0.091	0.924 ± 0.031	0.928 ± 0.013
LEMD3 (UniProt Q9Y2U8)	1.02 ± 0.018	1.25 ± 0.073	1.08 ± 0.032	1.09 ± 0.023	1.01 ± 0.011	1.09 ± 0.033
RAD54L2 (UniProt Q9Y4B4)	0.99 ± 0.038	1.01 ± 0.022	0.999 ± 0.033	1.02 ± 0.033	0.9896 ± 0.0094	1.01 ± 0.021
UniProt Q9Y4F3 and related entries	0.946 ± 0.099	0.971 ± 0.057	1.01 ± 0.061	1.01 ± 0.1	1.05 ± 0.097	1.07 ± 0.053
UniProt Q9Y6Q9 and related entries	0.945 ± 0.054	0.98 ± 0.037	0.93 ± 0.016	0.986 ± 0.04	0.94 ± 0.036	0.935 ± 0.0079
ZNF330 (UniProt Q9Y3S2)	0.99 ± 0.023	0.96 ± 0.036	0.971 ± 0.058	0.982 ± 0.039	0.992 ± 0.046	0.968 ± 0.018
UniProt Q9Y2C4 and related entries	1.1 ± 0.03	1.07 ± 0.058	1.12 ± 0.043	1.08 ± 0.046	1.09 ± 0.038	1.07 ± 0.011
UniProt Q9Y2L9-2|Q9Y2L9 and related entries	0.974 ± 0.039	0.955 ± 0.025	0.986 ± 0.055	0.929 ± 0.062	0.978 ± 0.1	0.997 ± 0.017
UniProt Q9Y530	0.953 ± 0.046	1.02 ± 0.021	0.979 ± 0.063	0.978 ± 0.033	0.95 ± 0.052	0.987 ± 0.03
WASF2 (UniProt Q9Y6W5)	0.93 ± 0.039	0.934 ± 0.022	0.911 ± 0.021	0.97 ± 0.064	0.906 ± 0.051	0.935 ± 0.02
UniProt Q9Y697 and related entries	1 ± 0.059	1 ± 0.042	0.993 ± 0.022	0.941 ± 0.074	0.997 ± 0.019	1.01 ± 0.044
LRRC42 (UniProt Q9Y546)	1.01 ± 0.089	0.968 ± 0.043	1.07 ± 0.043	1.03 ± 0.07	1.01 ± 0.043	0.977 ± 0.083
AP3M1 (UniProt Q9Y2T2)	0.953 ± 0.1	0.953 ± 0.053	0.931 ± 0.053	0.885 ± 0.089	0.932 ± 0.024	0.955 ± 0.048
ARFGEF1 (UniProt Q9Y6D6)	1.02 ± 0.032	0.9883 ± 0.0067	0.9571 ± 0.0088	0.975 ± 0.023	0.971 ± 0.044	0.955 ± 0.025
UniProt Q9Y5Y5 and related entries	1 ± 0.13	0.96 ± 0.14	0.946 ± 0.07	0.796 ± 0.16	0.914 ± 0.015	0.97 ± 0.03
DNMT3A (UniProt Q9Y6K1)	1.06 ± 0.056	1.07 ± 0.035	1.09 ± 0.024	1.05 ± 0.031	1.05 ± 0.018	1.08 ± 0.045

Random excerpt: three entries already listed.
Target	NP40-soluble protein abundance (concentration: 1mM)	NP40-soluble protein abundance (concentration: 2mM)	NP40-soluble protein abundance (concentration: 4mM)	NP40-soluble protein abundance (concentration: 6mM)	NP40-soluble protein abundance (concentration: 8mM)	NP40-soluble protein abundance (concentration: 10mM)
CCDC9 (UniProt Q9Y3X0)	1.11 ± 0.12	1.17 ± 0.094	1.2 ± 0.07	1.35 ± 0.17	1.26 ± 0.083	1.27 ± 0.066
MSRB2 (UniProt Q9Y3D2)	1.04 ± 0.1	1.02 ± 0.095	0.986 ± 0.076	1.02 ± 0.088	0.99 ± 0.074	0.992 ± 0.056
GTF3C3 (UniProt Q9Y5Q9)	1.07 ± 0.046	1.04 ± 0.048	1.03 ± 0.047	1.02 ± 0.051	1.03 ± 0.045	1.01 ± 0.05
